# Assay results reported in the supplement of paper PMC12067093, “Discovery and optimisation of a covalent ligand for TRIM25 and its application to targeted protein ubiquitination” (Chemical Science, 2025).
# Some of the results follow.
# Compound: CC1Cc2ccccc2N1C(=O)C1CCCN(C1)C(=O)CCl (mixture of isomers) [TRIM25 ligand 11 (diastereomer mixture)]
# Test: probe-labelled cysteine peptide fold change vs DMSO (competition) (log2 fold change); higher = less target engagement (more negative = stronger competition)
# Conditions: THP-1, incubation time: 4 h
# 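Further: competitive chemoproteomic profiling in live THP-1 cells with an iodoacetamide desthiobiotin (IA-DTB) probe, comparing probe-labelled peptide intensities in compound-treated cells against DMSO-treated controls.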
Target,probe-labelled cysteine peptide fold change (10 µM),probe-labelled cysteine peptide fold change (50 µM)
ELP4_Q96EB1_361_LNNLICDESDVK (UniProt Q96EB1),0.196,0.0194
EIF4A2_Q14240_132+135_VILALGDYMGATCHACIGGTNVR (UniProt Q14240),-0.177,0.0633
EIF4G3_O43432_928+930_NHDEESLECLCR (UniProt O43432),0.099,-0.0352
EPS15L1_Q9UBC2_82_LVACAQSGHEVTLSNLNLSMPPPK (UniProt Q9UBC2),0.426,0.39
EML2_O95834_110_CLAIHPDMVTIATGQVAGTTK (UniProt O95834),0.0152,0.0129
EPS15_P42566_824_EKDPEIFCDPFTSATTTTNK (UniProt P42566),-0.0973,-0.355
EIF4A1_P60842_134_VVMALGDYMGASCHACIGGTNVR (UniProt P60842),0.0707,0.00912
EIF3G_O75821_25_CVTSELLK (UniProt O75821),-0.00799,-0.148
EIF3B_P55884_420_GFHCESSAHWPIFK (UniProt P55884),0.214,-0.0511
EIF4G3_O43432_461_TCLSEDAK (UniProt O43432),-0.0503,-0.229
EML2_O95834_301_ITQAVLGAHDGGVFGLCALR (UniProt O95834),-0.0268,-0.0106
EIF4B_P23588_457_SLENETLNKEEDCHSPTSKPPKPDQPLK (UniProt P23588),-0.163,-0.0876
EPRS_P07814_1148_LNQWCNVVR (UniProt P07814),0.033,0.0217
ELMO2_Q96JJ3_550_LCEGSSFR (UniProt Q96JJ3),-0.0079,-0.0672
ENDOV_Q8N8Q3_140_GFGVACHLGVLTDLPCVGVAK (UniProt Q8N8Q3),0.103,0.108
ENG_P17813_516_GNCVSLLSPSPEGDPR (UniProt P17813),-0.00348,-0.204
EMC8_O43402_136_FTMDCVAPTIHVYEHHENR (UniProt O43402),-0.0913,-0.0277
EP300_Q09472_1247_RKNDTLDPELFVECTECGR (UniProt Q09472),0.0495,-0.131
ELANE_P08246_187_SNVCTLVR (UniProt P08246),0.174,0.0578
EIF4EBP1_Q13541_62_FLMECR (UniProt Q13541),0.0288,0.00825

# Given with bars between the fields: part of the list above
Target | probe-labelled cysteine peptide fold change (10 µM) | probe-labelled cysteine peptide fold change (50 µM)
EIF4G3_O43432_928+930_NHDEESLECLCR (UniProt O43432) | 0.099 | -0.0352
EML2_O95834_110_CLAIHPDMVTIATGQVAGTTK (UniProt O95834) | 0.0152 | 0.0129

# Following part

Target,probe-labelled cysteine peptide fold change (10 µM),probe-labelled cysteine peptide fold change (50 µM)
ERAP1_Q9NZ08_743_SQLLLLACVHNYQPCVQR (UniProt Q9NZ08),0.123,0.26
EPRS_P07814_1453_IVQIPFCGEIDCEDWIKK (UniProt P07814),-0.301,-0.148
EPC1_Q9H2F5_22_CEDLPDLHEYASINR (UniProt Q9H2F5),-0.132,-0.266
EML2_O95834_163_AVCCVGFSK (UniProt O95834),0.146,0.348
ENY2_Q9NPA8_40_LIECGWK (UniProt Q9NPA8),-0.0641,0.103
EPRS_P07814_337_KGSQFGQSCCLR (UniProt P07814),-0.132,-0.0797
EMG1_Q92979_66_TYELLNCDK (UniProt Q92979),-0.0851,-0.103
EIF4G3_O43432_301_CELSSPR (UniProt O43432),-0.0526,-0.2
EIF5B_O60841_635_LRAPIICVLGHVDTGK (UniProt O60841),-0.0665,0.00731
ELMO1_Q92556_663_HEYCIWTDGLNALLGK (UniProt Q92556),0.47,0.298
ERBIN_Q96RT1_464_AQVAFECDEDKDER (UniProt Q96RT1),-0.00324,-0.133
EPHX2_P34913_232_VTGIQLLNTPAPLPTSCNPSDMSHGYVTVKPR (UniProt P34913),0.149,-0.204
ELAC2_Q9BQ52_640_TCDLEEFQTCLVR (UniProt Q9BQ52),0.0319,-0.00113
EIPR1_Q53HC9_198_WSPHHNCTQVATANDTTLR (UniProt Q53HC9),-0.031,-0.16
ELP1_O95163_836_YCLSILTSHVK (UniProt O95163),-0.0405,-0.0807
EMC8_O43402_12_LTTQAYCK (UniProt O43402),-0.0682,0.0671
ELP5_Q8TE02_151_LPCTTLCQVLHAVSHQDSCPGDSSSVGK (UniProt Q8TE02),0.0565,0.114
EML4_Q9HC35_638_LVDEPGHCADFHPSGTVVAIGTHSGR (UniProt Q9HC35),0.109,-0.0818
ENG_P17813_207_GCHLEGVAGHK (UniProt P17813),0.011,0.173
